Reference: US5565606A, “Synthesis of peptide aminoalkylamides and peptide hydrazides by the solid-phase method” (Hoechst Aktiengesellschaft, priority 1986, dated 1996)
Not every detail of the peptide structures is certain; ends, links or a residue may be inferred. Square brackets hold non-standard residues; d marks the D form. Peptide text beside a SMILES is read from it. * marks the point of attachment. Nle = CCCC[C@H](N)C(=O)O; NH(CH2)6NH2 = NCCCCCCN*

System: release of growth hormone
Test: GRF in vivo assay: plasma growth hormone after i.v. injection
Design: species or system rat

CCCC[C@H](NC(=O)[C@@H](NC(=O)[C@H](CC(=O)O)NC(=O)[C@H](CCC(N)=O)NC(=O)[C@H](CC(C)C)NC(=O)[C@H](CC(C)C)NC(=O)[C@H](CCCCN)NC(=O)[C@H](CCCNC(=N)N)NC(=O)[C@H](C)NC(=O)[C@H](CO)NC(=O)[C@H](CC(C)C)NC(=O)[C@H](CCC(N)=O)NC(=O)CNC(=O)[C@H](CC(C)C)NC(=O)[C@@H](NC(=O)[C@H](CCCCN)NC(=O)[C@H](CCCNC(=N)N)NC(=O)[C@H](Cc1ccc(O)cc1)NC(=O)[C@H](CO)NC(=O)[C@H](CC(N)=O)NC(=O)[C@@H](NC(=O)[C@H](Cc1ccccc1)NC(=O)[C@@H](NC(=O)[C@H](C)NC(=O)[C@H](CC(=O)O)NC(=O)[C@@H](C)NC(=O)[C@@H](N)Cc1ccc(O)cc1)[C@@H](C)CC)[C@@H](C)O)C(C)C)[C@@H](C)CC)C(=O)N[C@@H](CO)C(=O)NCCCCCCN [Example 6B-1, [D-Ala2,Nle27]-GRF(1-28)-6-aminohexylamide] (H-Y[dA]DAIFTNSYRKVLGQLSARKLLQDI[Nle]S-{NH(CH2)6NH2})
Minimal Effective Dose in vivo (i.v. injection, urethane-anesthetized male rats, plasma growth hormone by radioimmunoassay): 20 ng | GRF action (release of growth hormone) in the body compared with natural GRF (in the body): substantially corresponds in quantitative terms to that of natural GRF
